Reference: article PMC6312541
These are yes or no findings as the source states them, for the method shown. Binding seen in cells or lysates may run through a third protein. These calls come from enrichment with a bait or labelling near it, and not all partners need be listed. One block for each molecule: values may come before it.

Sequences of proteins named here, by UniProt entry; tags and fusion partners are left off. A change or cut given only in a name is not applied to a line headed by its entry. A line that says so, or that is headed by a name, gives the form on record, which may keep a tag or linker.
eukaryotic translation initiation factor 4 gamma1 (eIF4GI), HA-tagged (Q04637, form named): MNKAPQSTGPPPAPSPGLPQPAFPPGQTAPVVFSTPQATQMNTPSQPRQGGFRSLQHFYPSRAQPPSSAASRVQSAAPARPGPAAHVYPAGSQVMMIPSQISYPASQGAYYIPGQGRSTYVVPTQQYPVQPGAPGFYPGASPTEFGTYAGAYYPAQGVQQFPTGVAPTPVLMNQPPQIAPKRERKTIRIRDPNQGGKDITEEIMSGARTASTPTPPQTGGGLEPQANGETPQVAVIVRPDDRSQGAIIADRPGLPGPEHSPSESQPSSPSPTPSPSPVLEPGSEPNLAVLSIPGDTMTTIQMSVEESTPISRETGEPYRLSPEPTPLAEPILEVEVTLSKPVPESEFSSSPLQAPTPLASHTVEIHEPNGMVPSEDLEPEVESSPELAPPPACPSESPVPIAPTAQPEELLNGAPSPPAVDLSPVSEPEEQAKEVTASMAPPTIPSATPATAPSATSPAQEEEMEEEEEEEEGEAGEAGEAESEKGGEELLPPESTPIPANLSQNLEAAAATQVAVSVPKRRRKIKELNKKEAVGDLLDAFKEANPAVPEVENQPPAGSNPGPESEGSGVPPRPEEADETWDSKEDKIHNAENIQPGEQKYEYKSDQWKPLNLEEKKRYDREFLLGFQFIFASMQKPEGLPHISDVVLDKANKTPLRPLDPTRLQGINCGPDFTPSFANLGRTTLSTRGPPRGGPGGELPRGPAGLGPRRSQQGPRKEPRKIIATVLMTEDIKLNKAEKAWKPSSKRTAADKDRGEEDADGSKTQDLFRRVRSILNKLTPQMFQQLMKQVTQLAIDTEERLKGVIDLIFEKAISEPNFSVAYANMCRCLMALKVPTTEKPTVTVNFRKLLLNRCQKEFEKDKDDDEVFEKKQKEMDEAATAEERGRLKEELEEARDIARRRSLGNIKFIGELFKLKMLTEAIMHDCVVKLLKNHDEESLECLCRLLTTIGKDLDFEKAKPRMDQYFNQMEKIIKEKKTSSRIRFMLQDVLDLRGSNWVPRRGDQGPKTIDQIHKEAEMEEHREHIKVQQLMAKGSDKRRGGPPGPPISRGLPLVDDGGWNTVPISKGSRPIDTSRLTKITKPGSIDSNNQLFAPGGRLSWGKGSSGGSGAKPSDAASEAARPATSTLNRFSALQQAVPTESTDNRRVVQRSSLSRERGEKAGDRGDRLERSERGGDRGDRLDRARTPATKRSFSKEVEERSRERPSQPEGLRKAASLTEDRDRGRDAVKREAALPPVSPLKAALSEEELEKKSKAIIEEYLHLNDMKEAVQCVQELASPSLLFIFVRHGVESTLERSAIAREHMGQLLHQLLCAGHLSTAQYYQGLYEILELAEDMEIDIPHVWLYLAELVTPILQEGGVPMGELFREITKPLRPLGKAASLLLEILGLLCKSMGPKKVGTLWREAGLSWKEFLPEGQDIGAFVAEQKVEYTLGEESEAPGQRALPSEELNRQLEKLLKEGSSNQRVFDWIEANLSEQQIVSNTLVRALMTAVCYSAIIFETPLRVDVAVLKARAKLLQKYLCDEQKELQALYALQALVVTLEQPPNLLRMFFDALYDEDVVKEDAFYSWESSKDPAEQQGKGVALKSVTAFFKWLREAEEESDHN

Molecular target: eukaryotic translation initiation factor 4 gamma1 (eIF4GI), HA-tagged (human) (UniProt Q04637)
Assay: affinity purification with mass spectrometry; HeLa cells transfected with eIF4GI-HA for 24 h; lysate subjected to IP with anti-HA antibody; SDS-PAGE, silver staining, mass spectrometry

- binding: binds
Molecule: G3BP1 (endogenous, found by IP/MS) (from UniProt Q13283 1-466)

- binding: binds
B1: G3BP2 (endogenous, found by IP/MS) (protein, UniProt Q9UN86 1-482)
chain: MVMEKPSPLLVGREFVRQYYTLLNKAPEYLHRFYGRNSSYVHGGVDASGKPQEAVYGQNDIHHKVLSLNFSECHTKIRHVDAHATLSDGVVVQVMGLLSNSGQPERKFMQTFVLAPEGSVPNKFYVHNDMFRYEDEVFGDSEPELDEESEDEVEEEQEERQPSPEPVQENANSGYYEAHPVTNGIEEPLEESSHEPEPEPESETKTEELKPQVEEKNLEELEEKSTTPPPAEPVSLPQEPPKAFSWASVTSKNLPPSGTVSSSGIPPHVKAPVSQPRVEAKPEVQSQPPRVREQRPRERPGFPPRGPRPGRGDMEQNDSDNRRIIRYPDSHQLFVGNLPHDIDENELKEFFMSFGNVVELRINTKGVGGKLPNFGFVVFDDSEPVQRILIAKPIMFRGEVRLNVEEKKTRAARERETRGGGDDRRDIRRNDRGPGGPRGIVGGGMMRDRDGRGPPPRGGMAQKLGSGRGTGQMEGRFTGQRR
